# In the supplement of paper PMC12819154, “High-throughput peptide-centric local stability assay extends protein–ligand identification to membrane proteins, tissues and bacteria” (Nature Structural & Molecular Biology, 2025):
# Amino acid sequences for entries named in this document (tags omitted). A change or cut given only in a name is not applied to a line headed by its entry.
# UniProt Q9JHK5: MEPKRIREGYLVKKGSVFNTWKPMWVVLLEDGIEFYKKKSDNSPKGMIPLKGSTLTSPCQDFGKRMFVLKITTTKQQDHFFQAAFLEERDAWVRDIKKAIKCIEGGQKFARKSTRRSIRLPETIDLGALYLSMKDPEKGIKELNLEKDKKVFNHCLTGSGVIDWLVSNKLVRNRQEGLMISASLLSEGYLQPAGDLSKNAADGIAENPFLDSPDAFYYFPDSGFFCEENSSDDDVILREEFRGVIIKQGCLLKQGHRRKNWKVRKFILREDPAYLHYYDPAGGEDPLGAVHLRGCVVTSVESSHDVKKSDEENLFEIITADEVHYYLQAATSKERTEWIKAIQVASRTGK
# UniProt Q9JKV1: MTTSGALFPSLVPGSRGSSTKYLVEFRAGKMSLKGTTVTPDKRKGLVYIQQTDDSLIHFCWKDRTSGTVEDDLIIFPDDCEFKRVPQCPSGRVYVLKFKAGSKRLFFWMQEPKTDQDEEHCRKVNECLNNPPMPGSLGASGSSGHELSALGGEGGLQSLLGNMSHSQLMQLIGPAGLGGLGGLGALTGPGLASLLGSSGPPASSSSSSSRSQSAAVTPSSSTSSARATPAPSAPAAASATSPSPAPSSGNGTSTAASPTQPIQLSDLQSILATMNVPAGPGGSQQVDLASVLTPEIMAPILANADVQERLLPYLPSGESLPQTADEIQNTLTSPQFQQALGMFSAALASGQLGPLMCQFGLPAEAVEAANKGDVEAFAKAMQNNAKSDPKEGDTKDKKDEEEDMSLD
# UniProt Q9JL26: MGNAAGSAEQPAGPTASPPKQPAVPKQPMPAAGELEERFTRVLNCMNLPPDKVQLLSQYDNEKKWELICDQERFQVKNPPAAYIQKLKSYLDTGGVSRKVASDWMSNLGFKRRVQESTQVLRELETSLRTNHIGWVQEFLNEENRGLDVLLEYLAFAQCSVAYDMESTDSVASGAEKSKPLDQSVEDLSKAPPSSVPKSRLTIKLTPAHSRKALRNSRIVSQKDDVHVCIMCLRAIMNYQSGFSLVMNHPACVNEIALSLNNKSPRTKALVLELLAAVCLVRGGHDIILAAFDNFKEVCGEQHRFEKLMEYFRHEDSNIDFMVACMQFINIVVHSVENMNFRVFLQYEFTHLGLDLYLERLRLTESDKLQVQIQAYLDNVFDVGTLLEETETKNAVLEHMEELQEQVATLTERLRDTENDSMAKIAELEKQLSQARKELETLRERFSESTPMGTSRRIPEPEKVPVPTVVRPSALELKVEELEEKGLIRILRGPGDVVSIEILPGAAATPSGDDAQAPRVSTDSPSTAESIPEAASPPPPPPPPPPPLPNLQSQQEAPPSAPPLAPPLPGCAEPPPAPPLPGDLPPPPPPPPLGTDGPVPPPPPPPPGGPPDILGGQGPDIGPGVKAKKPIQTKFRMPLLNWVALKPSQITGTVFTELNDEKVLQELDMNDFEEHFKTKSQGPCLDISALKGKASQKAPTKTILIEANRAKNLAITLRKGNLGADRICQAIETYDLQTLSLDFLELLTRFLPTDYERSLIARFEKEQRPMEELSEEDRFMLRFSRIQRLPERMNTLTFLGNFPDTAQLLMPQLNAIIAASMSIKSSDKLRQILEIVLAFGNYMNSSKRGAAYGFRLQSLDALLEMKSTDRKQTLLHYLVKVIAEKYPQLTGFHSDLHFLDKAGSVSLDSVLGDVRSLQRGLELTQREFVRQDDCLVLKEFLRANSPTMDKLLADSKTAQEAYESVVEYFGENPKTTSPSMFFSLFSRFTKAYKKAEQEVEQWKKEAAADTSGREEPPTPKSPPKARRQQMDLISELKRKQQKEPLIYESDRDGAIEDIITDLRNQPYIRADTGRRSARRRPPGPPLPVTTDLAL
# UniProt Q9ESK4: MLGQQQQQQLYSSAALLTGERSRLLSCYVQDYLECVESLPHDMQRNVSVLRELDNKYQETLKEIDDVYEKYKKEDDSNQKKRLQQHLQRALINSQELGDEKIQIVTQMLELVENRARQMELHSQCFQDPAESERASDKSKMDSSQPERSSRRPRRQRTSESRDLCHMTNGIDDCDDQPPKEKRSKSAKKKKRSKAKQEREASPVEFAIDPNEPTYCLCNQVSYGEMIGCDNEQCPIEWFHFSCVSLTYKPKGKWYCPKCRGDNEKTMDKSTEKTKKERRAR
# UniProt Q9JKC7: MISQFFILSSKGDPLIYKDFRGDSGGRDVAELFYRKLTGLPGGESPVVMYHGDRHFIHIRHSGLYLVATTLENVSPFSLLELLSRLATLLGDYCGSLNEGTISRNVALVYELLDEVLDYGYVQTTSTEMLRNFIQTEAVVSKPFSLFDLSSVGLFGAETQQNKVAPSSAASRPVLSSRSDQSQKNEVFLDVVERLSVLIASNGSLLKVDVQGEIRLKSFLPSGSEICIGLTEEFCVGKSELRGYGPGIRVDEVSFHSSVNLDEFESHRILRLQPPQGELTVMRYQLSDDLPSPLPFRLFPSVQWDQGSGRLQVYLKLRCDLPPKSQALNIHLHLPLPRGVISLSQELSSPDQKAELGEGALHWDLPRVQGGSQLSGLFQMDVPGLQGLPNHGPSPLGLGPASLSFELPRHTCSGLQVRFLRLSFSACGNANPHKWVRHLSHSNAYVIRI
# UniProt Q9JIW5: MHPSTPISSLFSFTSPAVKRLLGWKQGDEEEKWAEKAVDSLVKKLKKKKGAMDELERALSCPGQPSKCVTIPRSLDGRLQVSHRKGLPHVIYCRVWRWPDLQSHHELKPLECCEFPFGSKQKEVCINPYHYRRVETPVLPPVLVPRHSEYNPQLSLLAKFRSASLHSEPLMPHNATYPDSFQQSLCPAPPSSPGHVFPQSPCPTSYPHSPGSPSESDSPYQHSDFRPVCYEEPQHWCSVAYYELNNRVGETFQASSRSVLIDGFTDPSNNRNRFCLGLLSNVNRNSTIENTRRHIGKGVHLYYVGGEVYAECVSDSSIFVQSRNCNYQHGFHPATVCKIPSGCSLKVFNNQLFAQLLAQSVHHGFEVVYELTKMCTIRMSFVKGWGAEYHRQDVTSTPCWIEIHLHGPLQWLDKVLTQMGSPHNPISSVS
# UniProt Q9QX29: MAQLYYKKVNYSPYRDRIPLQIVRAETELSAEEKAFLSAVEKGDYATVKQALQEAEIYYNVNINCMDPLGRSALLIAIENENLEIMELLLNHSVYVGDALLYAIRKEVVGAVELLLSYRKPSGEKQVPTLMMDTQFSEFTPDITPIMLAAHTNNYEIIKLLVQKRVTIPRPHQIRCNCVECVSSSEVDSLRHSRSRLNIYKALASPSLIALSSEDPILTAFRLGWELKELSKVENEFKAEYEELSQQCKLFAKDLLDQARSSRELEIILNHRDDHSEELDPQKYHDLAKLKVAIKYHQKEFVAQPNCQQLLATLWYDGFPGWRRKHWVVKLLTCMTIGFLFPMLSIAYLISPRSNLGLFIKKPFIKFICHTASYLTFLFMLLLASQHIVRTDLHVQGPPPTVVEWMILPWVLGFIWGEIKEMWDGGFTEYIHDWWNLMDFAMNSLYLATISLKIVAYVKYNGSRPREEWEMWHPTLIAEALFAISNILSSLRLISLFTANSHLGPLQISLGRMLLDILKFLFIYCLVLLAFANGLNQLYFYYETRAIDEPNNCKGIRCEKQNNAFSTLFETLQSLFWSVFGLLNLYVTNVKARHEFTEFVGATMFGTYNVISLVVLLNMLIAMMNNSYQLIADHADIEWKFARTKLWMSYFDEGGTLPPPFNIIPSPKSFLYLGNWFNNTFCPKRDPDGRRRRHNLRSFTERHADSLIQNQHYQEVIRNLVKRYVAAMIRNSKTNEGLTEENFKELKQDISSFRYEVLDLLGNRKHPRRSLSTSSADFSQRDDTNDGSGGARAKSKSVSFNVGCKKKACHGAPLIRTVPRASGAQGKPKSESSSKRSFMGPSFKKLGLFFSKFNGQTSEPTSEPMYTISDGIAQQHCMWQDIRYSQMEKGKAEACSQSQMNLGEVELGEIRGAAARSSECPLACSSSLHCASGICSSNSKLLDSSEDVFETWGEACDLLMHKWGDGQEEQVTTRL
# UniProt Q9JM14: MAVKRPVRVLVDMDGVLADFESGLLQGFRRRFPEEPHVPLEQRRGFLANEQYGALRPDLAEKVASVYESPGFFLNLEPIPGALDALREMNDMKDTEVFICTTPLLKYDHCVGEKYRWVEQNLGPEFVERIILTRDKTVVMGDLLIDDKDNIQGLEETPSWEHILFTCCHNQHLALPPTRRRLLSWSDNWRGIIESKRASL
# UniProt Q9JM99, whole entry: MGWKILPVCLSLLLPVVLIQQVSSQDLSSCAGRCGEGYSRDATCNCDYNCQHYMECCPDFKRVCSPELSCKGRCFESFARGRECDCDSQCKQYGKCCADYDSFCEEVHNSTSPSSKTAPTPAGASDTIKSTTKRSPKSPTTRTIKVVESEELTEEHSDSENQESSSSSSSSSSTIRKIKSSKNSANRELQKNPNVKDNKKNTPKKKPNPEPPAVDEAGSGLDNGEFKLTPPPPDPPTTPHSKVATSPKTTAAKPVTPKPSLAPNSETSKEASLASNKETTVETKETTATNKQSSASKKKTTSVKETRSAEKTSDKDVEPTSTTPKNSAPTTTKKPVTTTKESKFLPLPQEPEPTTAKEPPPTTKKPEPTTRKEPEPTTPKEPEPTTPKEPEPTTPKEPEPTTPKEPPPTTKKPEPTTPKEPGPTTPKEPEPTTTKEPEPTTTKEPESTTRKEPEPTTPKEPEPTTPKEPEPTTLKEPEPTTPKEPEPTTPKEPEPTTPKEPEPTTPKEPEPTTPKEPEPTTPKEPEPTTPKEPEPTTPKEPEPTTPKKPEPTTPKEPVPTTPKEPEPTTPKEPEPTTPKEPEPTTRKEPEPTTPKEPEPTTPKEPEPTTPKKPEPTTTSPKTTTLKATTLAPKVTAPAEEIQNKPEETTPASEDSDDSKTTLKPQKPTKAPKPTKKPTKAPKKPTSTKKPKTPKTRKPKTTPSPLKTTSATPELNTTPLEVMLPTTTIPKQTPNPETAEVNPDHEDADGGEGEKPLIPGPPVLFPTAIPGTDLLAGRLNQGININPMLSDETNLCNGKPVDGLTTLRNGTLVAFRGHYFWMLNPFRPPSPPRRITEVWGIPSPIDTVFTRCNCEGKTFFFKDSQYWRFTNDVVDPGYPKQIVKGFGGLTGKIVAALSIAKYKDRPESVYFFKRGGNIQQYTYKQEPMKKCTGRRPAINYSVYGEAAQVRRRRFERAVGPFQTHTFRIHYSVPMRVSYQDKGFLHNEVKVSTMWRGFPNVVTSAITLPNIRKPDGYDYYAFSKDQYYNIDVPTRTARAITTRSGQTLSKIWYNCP
# UniProt Q9JM13, whole entry: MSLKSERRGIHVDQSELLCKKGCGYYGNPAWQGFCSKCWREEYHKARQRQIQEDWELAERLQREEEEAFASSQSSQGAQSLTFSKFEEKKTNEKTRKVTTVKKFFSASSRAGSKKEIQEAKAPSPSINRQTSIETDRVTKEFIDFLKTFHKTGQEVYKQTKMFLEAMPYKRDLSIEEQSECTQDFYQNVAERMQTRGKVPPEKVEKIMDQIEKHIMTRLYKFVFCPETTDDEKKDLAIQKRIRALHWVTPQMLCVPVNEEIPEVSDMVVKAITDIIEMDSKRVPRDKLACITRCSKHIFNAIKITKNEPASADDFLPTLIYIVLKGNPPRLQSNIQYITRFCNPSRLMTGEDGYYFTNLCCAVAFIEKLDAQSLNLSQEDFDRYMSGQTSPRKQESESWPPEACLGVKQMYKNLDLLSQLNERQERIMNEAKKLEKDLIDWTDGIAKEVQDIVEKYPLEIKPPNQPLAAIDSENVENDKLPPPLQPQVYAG
# UniProt Q9ERZ6: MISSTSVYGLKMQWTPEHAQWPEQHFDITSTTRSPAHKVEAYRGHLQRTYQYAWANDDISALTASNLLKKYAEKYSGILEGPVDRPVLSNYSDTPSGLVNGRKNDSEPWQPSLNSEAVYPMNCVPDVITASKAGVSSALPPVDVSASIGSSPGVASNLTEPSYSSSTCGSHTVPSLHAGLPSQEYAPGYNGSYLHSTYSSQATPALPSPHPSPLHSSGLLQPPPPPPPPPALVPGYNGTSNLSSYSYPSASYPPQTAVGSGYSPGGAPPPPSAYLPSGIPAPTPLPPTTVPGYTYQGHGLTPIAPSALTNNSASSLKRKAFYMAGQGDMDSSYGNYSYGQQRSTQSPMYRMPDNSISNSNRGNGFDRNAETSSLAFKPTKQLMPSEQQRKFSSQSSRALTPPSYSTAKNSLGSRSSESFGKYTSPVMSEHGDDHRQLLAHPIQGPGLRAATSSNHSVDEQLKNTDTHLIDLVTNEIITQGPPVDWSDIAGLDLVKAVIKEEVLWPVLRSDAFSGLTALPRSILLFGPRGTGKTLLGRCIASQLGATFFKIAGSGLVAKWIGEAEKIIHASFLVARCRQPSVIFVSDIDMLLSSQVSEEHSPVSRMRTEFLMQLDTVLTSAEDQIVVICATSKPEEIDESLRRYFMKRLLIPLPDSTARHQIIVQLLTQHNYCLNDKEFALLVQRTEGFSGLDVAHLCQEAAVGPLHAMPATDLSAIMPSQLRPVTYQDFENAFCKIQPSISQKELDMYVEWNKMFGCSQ
# UniProt Q9JLR9: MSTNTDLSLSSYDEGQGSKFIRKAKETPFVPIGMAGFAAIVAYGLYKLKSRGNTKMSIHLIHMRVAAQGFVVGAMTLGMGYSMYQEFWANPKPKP
# The other results are listed elsewhere or left out. Most values lie at the level of the controls, where differences are scatter.
# Compound: CN[C@@H]1C[C@H]2O[C@@](C)([C@@H]1OC)n1c3ccccc3c3c4c(c5c6ccccc6n2c5c31)C(=O)NC4 [staurosporine]
# Test: log2 fold change of tryptic peptide abundance, ligand vs vehicle (limited proteolysis) (log2 ratio); higher = more trypsin-susceptible (destabilized)
# Conditions: ligand concentration: 20 uM; sample: mouse liver crude lysate; replicate design: treated separately
row,Target,log2 fold change
1,"UniProt Q9JM93 (peptide sequence: KVVDPETGR, peptide start residue: 178)",-0.183
2,"UniProt Q9JHK5 (peptide sequence: EDPAYLHYYDPAGGEDPLGAVHLR, peptide start residue: 270)",0.0655
3,"UniProt Q9JKV1 (peptide sequence: RLFFWMQEPK, peptide start residue: 104)",-0.379
4,"UniProt Q9JL26 (peptide sequence: VEELEEK, peptide start residue: 479)",0.286
5,"UniProt Q9JKC6 (peptide sequence: QEQAAAPGPAATK, peptide start residue: 49)",0.49
6,"UniProt Q9JMD0 (peptide sequence: PAASITSKPATLTTTSATSK, peptide start residue: 360)",0.418
7,"UniProt Q9JJ94 (peptide sequence: QIQQEEDEKQR, peptide start residue: 32)",-0.643
8,"UniProt Q9JKB1 (peptide sequence: FMERDPDELR, peptide start residue: 212)",-0.385
9,"UniProt Q9ESK4 (peptide sequence: DLCHMTNGIDDCDDQPPKEKR, peptide start residue: 163)",0.49
10,"UniProt Q9JKF7 (peptide sequence: RFQGLSLPTHLR, peptide start residue: 293)",0.405
11,"UniProt Q9JJI6 (peptide sequence: RQPLPGSESEAR, peptide start residue: 973)",-0.202
12,"UniProt Q9JII5 (peptide sequence: GQNHNVQGFHPYR, peptide start residue: 393)",-0.453
13,"UniProt Q9ESL4 (peptide sequence: NFSSLNLSSR, peptide start residue: 647)",-0.107
14,"UniProt Q9JHU9 (peptide sequence: HVFVGGDDFK, peptide start residue: 296)",-0.387
15,"UniProt Q9ET30 (peptide sequence: YSKEEEMDDMDR, peptide start residue: 253)",-0.0457
16,"UniProt Q9JKC7 (peptide sequence: VAPSSAASRPVLSSR, peptide start residue: 164)",-0.119
17,"UniProt Q9JIB4 (peptide sequence: MDEEPERTK, peptide start residue: 1)",-0.52
18,"UniProt Q9JLJ5 (peptide sequence: AVQQNGAPATTK, peptide start residue: 264)",-0.0496

# An excerpt of these results, with bars between the fields:
row | Target | log2 fold change
6 | UniProt Q9JMD0 (peptide sequence: PAASITSKPATLTTTSATSK, peptide start residue: 360) | 0.418
17 | UniProt Q9JIB4 (peptide sequence: MDEEPERTK, peptide start residue: 1) | -0.52

# Following part.

row,Target,log2 fold change
1,"UniProt Q9JIW5 (peptide sequence: GAMDELER, peptide start residue: 50)",-0.381
2,"UniProt Q9QX29 (peptide sequence: RHNLRSFTER, peptide start residue: 693)",5.84e-05
3,"UniProt Q9JM14 (peptide sequence: LLSWSDNWR, peptide start residue: 182)",-0.111
4,"UniProt Q9QWW1 (peptide sequence: IDDLHDFR, peptide start residue: 337)",0.69
5,"UniProt Q9JM99 (peptide sequence: AVGPFQTHTFR, peptide start residue: 956)",0.471
6,"UniProt Q9JJ06 (peptide sequence: EINQVNRK, peptide start residue: 346)",0.193
7,"UniProt Q9JKB3 (peptide sequence: MQAGEIGEMK, peptide start residue: 251)",0.162
8,"UniProt Q9JHR7 (peptide sequence: AFIPQLLSR, peptide start residue: 714)",-0.398
9,"UniProt Q9QUH0 (peptide sequence: TQEILSQLPFK, peptide start residue: 29)",-0.294
10,"UniProt Q9JMA1 (peptide sequence: LQEEITK, peptide start residue: 294)",-0.345
11,"UniProt Q9JI60 (peptide sequence: LFSVSVPGGGTGK, peptide start residue: 24)",0.172
12,"UniProt Q9JM13 (peptide sequence: IMDQIEK, peptide start residue: 207)",0.0966
13,"UniProt Q9ERZ6 (peptide sequence: QLLAHPIQGPGLR, peptide start residue: 436)",0.266
14,"UniProt Q9JLM9 (peptide sequence: HLQLFSEFSTSHVYMSLAGKKK, peptide start residue: 274)",0.482
15,"UniProt Q9JIM3 (peptide sequence: EANQVCAADGDR, peptide start residue: 1012)",0.238
16,"UniProt Q9JJG9 (peptide sequence: HAGHELLLVPMGGK, peptide start residue: 582)",0.206
17,"UniProt Q9JL35 (peptide sequence: EGHHEEGGKEDLHEEDGK, peptide start residue: 336)",-0.472
18,"UniProt Q9JLR9 (peptide sequence: MSIHLIHMR, peptide start residue: 56)",-0.158
